Test results published in PubChem BioAssay AID504444 (National Center for Advancing Translational Sciences (NCATS), 2011).
In all, about 360,000 compounds went through this assay and about 7,500 (2.1%) were called active. The inconclusive results got no clear call from the source; some entries with a clear call stand among them for comparison. The call rests on the fitted dose curve; in most records, active means well fitted inhibition curve with a large enough effect; inconclusive means small, poorly fitted or top-dose-only effect, or effect the other way; inactive means flat fitted curve, though single readings scatter. A potency beside an inconclusive call is a rough fit, not a confirmed value.

assay: Nrf2 qHTS screen for inhibitors; conditions: A549 ARE-Fluc reporter, luciferase luminescence, 18-24 h; series mostly up to 46 µM; further: nearly all actives have a fitted effect of over 60% in size
Method in brief: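 A549 ARE_Fluc cells (5000/well, 5% FBS OPTI-MEM) pre-incubated 2 h, then treated with compounds 18-24 h at 37C/5% CO2 in concentration-response. CellTiter-Fluor viability read first; BugLite luciferase luminescence after 15 min at room temperature gives Nrf2 activity.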
Potency means the concentration at half of the fitted maximal effect.

Row | Compound | Potency
1 | CN(C)c1ccc(NC(=O)CSc2nnc(-c3ccco3)c(-c3ccco3)n2)cc1 | inactive
2 | O=C(Cc1cccs1)N/N=C/C(Cl)=C/c1ccccc1 | inactive
3 | CCOC(=O)N1CCN(C(=O)c2cc(-c3ccc(OCC)cc3)nc3ccccc23)CC1 | inconclusive: 0.92 µM [activator, full curve, poor fit]
4 | CCOC(=O)N1CCC(NC(=O)CSCc2nc(-c3sccc3C)oc2C)CC1 | inconclusive: 29.1 µM [falling, single point]
5 | O=C1CC(C(=O)Nc2ccc(F)cc2)S/C(=N\N=C\c2ccco2)N1 (centres undefined) | inactive
6 | COc1ccc(N2CCN(c3ncnc4c3[nH]c3ccccc34)CC2)cc1 | active: 5.8 µM
7 | CN1C(=CC=C2C=C(I)C(=O)C(I)=C2)C(C)(C)c2ccccc21 | inconclusive: 20.6 µM [falling, single point]
8 | O=C(COc1ccc(F)cc1)OCc1cc(=O)n2nc(C3CCCCC3)sc2n1 | inconclusive: 29.1 µM [activator, single point]
9 | Cc1ccc(-c2nnnn2C2C/C(=N\NC(N)=S)C3OCC2O3)cc1 (centres undefined) | inconclusive: 14.6 µM [activator, partial curve]
10 | COc1ccccc1C1=NOC(C)(c2sc(-c3ccc(Cl)cc3)nc2C)C1 (centres undefined) | inconclusive: 25.9 µM [activator, single point]
11 | O=C(Nc1cccc(F)c1)N(Cc1ccc(Cl)cc1)CC(O)C(F)(F)F (centres undefined) | inconclusive: 29.1 µM [falling, single point]
12 | Cc1cc(-c2ccc(C)c(S(=O)(=O)NC(c3cccs3)C(C)C)c2)on1 (centres undefined) | inconclusive: 14.6 µM [falling, partial curve, poor fit]
13 | CN1CCN(C(=O)/C(=C/c2ccccc2)c2ccccc2)CC1 | inactive
14 | O=C(/C=C/c1ccccc1)c1c[nH]c2ccccc12 | inconclusive: 1.64 µM [activator, partial curve, poor fit]
15 | O=C(NCCS(=O)(=O)N1CCN(c2ccccc2)CC1)C1CC(=O)N(c2ccc(F)cc2)C1 (centres undefined) | inconclusive: 32.6 µM [activator, single point]
16 | c1ccc(SCCN2CCc3ccccc3C2)cc1 | inconclusive: 23.1 µM [activator, single point]
17 | O=C(Nc1ccccc1O)c1cc(S(=O)(=O)N2CCOCC2)c(Cl)cc1Cl | inconclusive: 29.1 µM [falling, single point]
18 | COc1cccc(C2=Nn3c(nnc3-c3cc(OC)cc(OC)c3)SC2)c1 | inconclusive: 13 µM [falling, partial curve]
19 | CC(=O)Nc1cccc(NC(=O)c2ccc(Br)cc2)c1 | inconclusive: 8.2 µM [activator, partial curve]
20 | O=C(COC(=O)c1cc(C(F)(F)F)cc(C(F)(F)F)c1)NCc1ccc(Cl)cc1 | inconclusive: 32.6 µM [falling, single point]
21 | COc1cc2c(cc1OC)CN(c1ncccc1[N+](=O)[O-])CC2 | inconclusive: 6.51 µM [activator, single point]
22 | CCOC(=O)c1c(C)oc2ccc(N(C(=O)c3ccncc3)S(=O)(=O)c3ccc(CC)cc3)cc12 | inconclusive: 25.9 µM [falling, single point]

Row | Compound | Potency
23 | O=C(COc1ccc(-c2ccccc2)cc1)N/N=C/c1cc(O)ccc1Br | inactive
24 | O=C(CN1C(=O)COc2ccc(S(=O)(=O)NC3CCCC3)cc21)Nc1ccc(Cl)cc1F | inactive
25 | CCOC(=O)Nc1ccc(S(=O)(=O)N2CCC(C)CC2)cc1 | inactive
26 | CC(SC(C)C(=O)NN=Cc1cccc(Cl)c1)C(=O)NN=Cc1cccc(Cl)c1 (centres undefined) | inconclusive: 29.1 µM [falling, partial curve, poor fit]
27 | Cc1cccnc1CCNC(=O)C1CCC(=O)N(Cc2cccc(F)c2)C1 (centres undefined) | inconclusive: 29.1 µM [activator, partial curve, poor fit]
28 | Cn1cc(CCC(=O)N2CCCC(N3CCN(c4ccccc4F)CC3)C2)cn1 (centres undefined) | inconclusive: 6.51 µM [activator, partial curve, poor fit]
29 | O=C1CCC/C=C/C[C@@H](CC(=O)N(CCO)Cc2ccccc2)C(=O)NC[C@@H](c2ccccc2)O1 | inactive
30 | CCOC(=O)c1cccc(NC(=O)CCc2nc3cccnc3n2-c2ccccc2)c1 | inconclusive: 20.6 µM [falling, single point]
31 | Cc1ccc(NC(=O)C2CSC3(C)CCC(=O)N23)cc1S(=O)(=O)N1CCCCCC1 (centres undefined) | active: 16.4 µM
32 | N#Cc1nc(COc2ccccc2)oc1N1CCN(Cc2ccccc2)CC1 | inactive
33 | Cc1ccc(NC(=O)CSc2nc(=O)n(CCN(C)C)c3c2CCCC3)cc1Cl | inactive
34 | Cc1cc(=O)[nH]c2ccc(Cc3ccccc3)cc12 | inconclusive: 8.2 µM [falling, partial curve, poor fit]
35 | CC(=O)N1c2ccc(S(=O)(=O)N3CCCC(C(=O)NCc4ccccc4Cl)C3)cc2CC1C (centres undefined) | inconclusive: 20.6 µM [falling, partial curve, poor fit]
36 | Cn1nnnc1Sc1ncnc2scc(-c3ccccc3F)c12 | inconclusive: 32.6 µM [falling, single point]
37 | CC(C)(C)c1ccc(-c2nc(C#N)c(NCc3ccncc3)o2)cc1 | inconclusive: 29.1 µM [activator, single point]
38 | Cc1cc(C(=O)NCCC2=CCCCC2)no1 | inconclusive: 18.4 µM [activator, single point]
39 | COc1ccc(-n2nc(C(=O)NCC(=O)NCCC3=CCCCC3)c3ccccc3c2=O)cc1 | inconclusive: 8.2 µM [falling, partial curve]
40 | N=c1n(CC(=O)c2ccc(Br)cc2)c2ccccc2n1Cc1ccccc1 | inactive
41 | CC[n+]1c(/C=C/C=C/N(C(C)=O)c2ccccc2)sc2ccccc21 | inconclusive: 18.4 µM [falling, partial curve, poor fit]
42 | O=C1C(SCCO)=C(SCCO)C(=O)c2ccccc21 | active: 25.9 µM
43 | N#C/C(=C\c1cccnc1)c1nc2ccccc2[nH]1 | inactive
44 | CC1c2cc3c(cc2CCN1C(=O)c1ccc(Cl)cc1)OCCCO3 (centres undefined) | inconclusive: 23.1 µM [falling, partial curve, poor fit]

Part of the list above in a different format:
Row	Compound	Potency
2	O=C(Cc1cccs1)N/N=C/C(Cl)=C/c1ccccc1	inactive
16	c1ccc(SCCN2CCc3ccccc3C2)cc1	inconclusive: 23.1 µM [activator, single point]
34	Cc1cc(=O)[nH]c2ccc(Cc3ccccc3)cc12	inconclusive: 8.2 µM [falling, partial curve, poor fit]
